Measurements published in patent US7935233B2, “Tyrosinase enzyme electrode and production method thereof” (Gwangju Institute of Science and Technology, priority 2007, dated 2011).

Test system: tyrosinase enzyme
Assay: Inhibition percentage analysis at the tyrosinase enzyme electrode containing gold nanoparticles in a flow system
Format: biochemical
Settings: for contact time at which the highest inhibition percentage is exhibited: agricultural chemical about 0.01 ppb; for Detection limit: gold nanoparticle/glass carbon electrode, 1 mM catechol, the present invention

In the case of `O=C(O)COc1ccc(Cl)cc1Cl` [2,4-dichlorophenoxyacetic acid], the “contact time at which the highest inhibition percentage is exhibited” value is reported as “about 200 seconds” and the Detection limit is reported as 0.55 ppt.
For `CCNc1nc(Cl)nc(NC(C)C)n1` [atrazine], the “contact time at which the highest inhibition percentage is exhibited” value was “about 200 seconds” and the Detection limit was 0.35 ppt.
